# Data from paper PMC5007978, “A chemical with proven clinical safety rescues Down-syndrome-related phenotypes in through DYRK1A inhibition” (Disease Models & Mechanisms, 2016).
# Amino acid sequences for entries named in this document (tags omitted).
# UniProt Q9Y463, whole entry: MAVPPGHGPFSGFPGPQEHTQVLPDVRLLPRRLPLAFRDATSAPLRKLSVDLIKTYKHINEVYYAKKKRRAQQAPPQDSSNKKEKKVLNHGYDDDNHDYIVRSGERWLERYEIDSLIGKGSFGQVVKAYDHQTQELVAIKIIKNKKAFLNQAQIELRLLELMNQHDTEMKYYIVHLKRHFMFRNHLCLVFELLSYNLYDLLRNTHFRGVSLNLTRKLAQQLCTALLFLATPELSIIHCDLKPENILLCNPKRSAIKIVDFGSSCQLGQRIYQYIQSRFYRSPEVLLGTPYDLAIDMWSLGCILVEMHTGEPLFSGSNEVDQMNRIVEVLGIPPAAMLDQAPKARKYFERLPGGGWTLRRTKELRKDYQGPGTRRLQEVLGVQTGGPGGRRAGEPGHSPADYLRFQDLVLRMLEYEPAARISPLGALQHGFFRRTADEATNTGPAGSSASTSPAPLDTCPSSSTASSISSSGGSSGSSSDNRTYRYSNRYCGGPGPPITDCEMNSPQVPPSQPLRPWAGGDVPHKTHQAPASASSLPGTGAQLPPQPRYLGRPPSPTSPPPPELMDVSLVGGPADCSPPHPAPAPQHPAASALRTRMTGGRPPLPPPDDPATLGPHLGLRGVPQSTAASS
# Target: T1, DYRK1B (Homo sapiens, UniProt Q9Y463)
# T1 construct: purchased Life Technologies (Kinase Profiler service)
# Experiment: In vitro kinase assay, recombinant human DYRK1B (Life Technologies)
# Format: biochemical
smiles,measurement,value
COc1ccc2c(c1)[nH]c1c(C)nccc12 [harmine],IC50,152 nM
